According to PubChem BioAssay AID2551 (National Center for Advancing Translational Sciences (NCATS), 2010):
Among all 310,000 compounds or so, about 17,000 (5.5%) were called active. The inconclusive results got no clear call from the source; some entries with a clear call stand among them for comparison. Calls follow the shape of the dose curve; as a rule, active = well fitted inhibition curve with a large enough effect; inconclusive = small, poorly fitted or top-dose-only effect, or effect the other way; inactive = no such curve, though single readings can be large or run the other way. Where the call is inconclusive, the potency comes from a doubtful curve fit.

Sequences of proteins named here, by UniProt entry; tags and fusion partners are left off. A change or cut given only in a name is not applied to a line headed by its entry.
UniProt P51450: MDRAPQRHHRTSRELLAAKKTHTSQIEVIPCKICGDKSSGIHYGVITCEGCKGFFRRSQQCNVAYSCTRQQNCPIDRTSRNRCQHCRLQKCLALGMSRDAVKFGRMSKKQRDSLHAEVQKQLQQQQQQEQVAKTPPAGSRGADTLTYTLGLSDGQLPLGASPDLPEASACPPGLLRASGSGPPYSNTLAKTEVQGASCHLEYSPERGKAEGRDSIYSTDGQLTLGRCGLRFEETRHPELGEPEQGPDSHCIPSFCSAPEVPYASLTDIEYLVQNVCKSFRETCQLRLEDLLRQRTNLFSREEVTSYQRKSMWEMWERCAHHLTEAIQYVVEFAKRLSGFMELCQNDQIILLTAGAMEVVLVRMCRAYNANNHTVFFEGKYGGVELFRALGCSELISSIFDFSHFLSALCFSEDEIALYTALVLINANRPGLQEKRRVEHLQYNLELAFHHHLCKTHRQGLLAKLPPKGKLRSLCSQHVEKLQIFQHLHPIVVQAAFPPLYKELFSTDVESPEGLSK

What follows are compounds tested against Nuclear receptor ROR-gamma (Mus musculus) (UniProt P51450) (assay: qHTS for inhibitors of ROR gamma transcriptional activity). Conditions: Drosophila S2 Gal4-RORgamma UAS-luciferase reporter, 20 h; activity change, negative = inhibition: at 53.6 µM (top of the series).
Summary of the method: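 ROR gamma transcriptional activity was tracked as Gal4-UAS luciferase output in stably transfected Drosophila Schneider cells, with compound added 1 hr before 700 uM copper sulfate induction and a 20 hr ambient-temperature incubation.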
% is scaled to controls: 0 for no effect and ±100 for the full control effect; potency is read from the fitted curve at half-maximal effect.
Also: nearly all actives have a fitted effect of over 60% in size.

Compound	activity change, negative = inhibition	Potency
COc1cccc(NC(=O)c2cc([N+](=O)[O-])ccc2NC(=O)CNCC2CCCO2)c1 (stereo not given)	inactive: 23.5%	–
Cc1cc(/C=N/O)c(C)n1-c1ccc(Br)cc1	–	inconclusive: 35.5 µM [activator, single point]
c1ccc2c(NC3C4CC5CC(C4)CC3C5)nc(N3CCOCC3)nc2c1 (stereo not given)	–	inconclusive: 20 µM [inhibitor, single point]
CC1=C(C(=O)OC(C)C)C(c2ccccc2)NC(=S)N1C (stereo not given)	–	active: 14.1 µM
CC(C)(C)c1ccc(C(=O)N2CCC(=O)N([C@H](COCc3ccc(Cl)cc3)Cc3ccccc3)CC2)cc1	inactive: 4.42% [at 40.7 µM]	–
N#Cc1ccccc1OCCN1C(=O)c2ccccc2C1=O	–	inconclusive: 2.82 µM [activator, single point]
O=C(Nc1cccc(NC(=S)NC(=O)c2cccs2)c1)c1ccccc1	–	active: 10 µM
CCC(CC)COC(=O)C1=C(C)NC(=O)NC1c1ccccc1Br (stereo not given)	–	inconclusive: 12.6 µM [activator, single point]
COc1ccccc1NC(=S)NCCc1ccc(OC)c(OC)c1	–	inconclusive: 12.6 µM [inhibitor, single point]
O=C(c1ccccc1)c1ccc(N2CCOCC2)c(NC(=O)c2ccco2)c1	–	inconclusive: 0.562 µM [activator, full curve]
COc1ccccc1Nc1nc(N)nc(CSC(=S)N2CC(C)CC(C)C2)n1 (stereo not given)	–	inconclusive: 11.2 µM [inhibitor, single point]
C/C(NC(=O)c1cccs1)=C1\C(=O)C[C@@H]2[C@H]1C2(C)C	–	inconclusive: 17.8 µM [activator, single point]
C[C@@H](C(=O)NC1CCCCC1)N1C(=O)N2CCc3c([nH]c4ccccc34)[C@@]2(C)C1=O	–	inconclusive: 17.8 µM [activator, single point]
Cc1cccc(N2CCN(Cc3cn(C)nc3-c3ccccc3F)CC2)n1	inactive: -27.4%	–
CC(=O)c1c(C)[nH]c(C(=O)OCC(=O)Nc2ccccc2Cl)c1C	inactive: 30.9%	–
COc1ccc(CCNc2oc(-c3ccco3)nc2C#N)cc1	–	inconclusive: 5.01 µM [activator, full curve]
CCOC(=O)c1ccc2c(c1)C1C=CCC1C(C(=O)OCC)N2 (stereo not given)	–	inconclusive: 1.26 µM [inhibitor, single point]
CCCCCCCn1c2c(c(=N)c3c1CCC3)CCCC2	–	active: 6.31 µM
COc1ccc(CCNC(=O)COC(=O)c2cc(S(=O)(=O)NCc3ccccc3)ccc2O)cc1OC	inactive: 4.99%	–
O=C(O)c1ccc(CN2C(=O)c3cccc4c([N+](=O)[O-])ccc(c34)C2=O)cc1	–	inconclusive: 31.6 µM [inhibitor, single point]
c1coc(-c2nnc3sc(-c4cccs4)nn23)c1	inactive: -10.7%	–
COc1cc(NC(=O)c2cc3sccc3n2C)cc(OC)c1	–	inconclusive: 14.1 µM [activator, partial curve]
COc1ccc2nc(NC(=O)CN3C(=O)NC4(CCCCC4)C3=O)sc2c1	–	inconclusive: 12.6 µM [activator, single point]
CC(=O)c1ccc(OC(C)C)c(CSC(=N)N)c1	–	inconclusive: 15.8 µM [activator, single point]

Compound	activity change, negative = inhibition	Potency
CC(C)OCCCNC(=O)COCC(=O)Nc1ccc(OCCc2ccccc2)cc1	–	inconclusive: 35.5 µM [activator, single point]
CC1Cc2c(-c3ccccc3)nc3c(c2CO1)CN(CCOc1ccccc1)CC3 (stereo not given)	inactive: 4.75% [at 10 µM]	–
Fc1ccc(COc2cccc(-c3n[nH]c(=S)o3)c2)cc1	–	active: 11.2 µM
CCc1cccc(C)c1NC(=S)N(CCOC)C(C)c1ccco1 (stereo not given)	–	active: 10 µM
Cc1ccc(/C=N/n2c(-c3ccncc3)n[nH]c2=S)s1	–	inconclusive: 3.16 µM [inhibitor, partial curve]
Cc1cc(/C=C(\C#N)C(=O)NCc2cccs2)c(C)[nH]1	–	inconclusive: 11.2 µM [activator, single point]
Cc1ccc(S(=O)(=O)NCc2ccncc2)c(C)c1C	–	inconclusive: 25.1 µM [inhibitor, single point]
O=C(ONC1=NCCCCC1)c1cccc([N+](=O)[O-])c1	–	active: 7.08 µM
COC(=O)c1ccc(COC(=O)c2[nH]c(C)c(C(C)=O)c2C)o1	–	inconclusive: 35.5 µM [inhibitor, single point]
Nc1nc(-c2ccccc2)cn1N	–	active: 3.16 µM
CC(=O)Nc1cccc(NC(=O)c2cc3ccccc3o2)c1	–	inconclusive: 0.316 µM [activator, full curve]
Cc1ccc(-c2csc(NC(=O)N3CCOCC3)n2)cc1	–	inconclusive: 15.8 µM [activator, partial curve]
CC(Sc1nnc(-c2ccccc2)c(-c2ccccc2)n1)C(=O)N1CCc2ccccc21 (stereo not given)	–	active: 2.24 µM
C/C(=N\NS(=O)(=O)c1ccc([N+](=O)[O-])cc1)c1cccs1	inactive: 14.5%	–
Cc1ccc(NC2=C(N3CCOCC3)C(=O)c3ccccc3C2=O)cc1	–	inconclusive: 35.5 µM [inhibitor, single point]
COc1ccc(NS(=O)(=O)c2ccc3c(c2)NC(=O)C(C)S3)cc1 (stereo not given)	–	inconclusive: 15.8 µM [activator, single point]
COc1cccc(NC(=O)C2CCN(S(=O)(=O)c3ccc4c(c3)CC(C)N4C(C)=O)CC2)c1 (stereo not given)	–	inconclusive: 35.5 µM [activator, single point]
CCOC(=O)c1ccc(NC(=O)c2c(NC(=O)CCC(=O)O)sc3c2CCCCC3)cc1	–	active: 10 µM
Cc1[nH]nc2c1C1(CCN(Cc3ccccc3)CC1)C(C#N)=C(N)O2	–	inconclusive: 6.31 µM [inhibitor, partial curve, poor fit]
FC(F)(F)c1cccc(Cc2noc(CN3CCSCC3)n2)c1	inactive: 32.1%	–
O=C(COc1ccc(Cl)cc1Cl)NC(=S)N1CCCc2ccccc21	–	inconclusive: 22.4 µM [inhibitor, single point]
O=P(c1ccccc1)(c1ccccc1)c1nc(-c2ccc(Cl)cc2)oc1N1CCOCC1	–	inconclusive: 15.8 µM [activator, partial curve, poor fit]
COC(=O)c1ccc(C(=O)OC)c(NC(=S)N2CCN(c3ccccc3F)CC2)c1	–	inconclusive: 35.5 µM [inhibitor, single point]
O=C(NC(=S)Nc1ccc(NC(=O)c2cccs2)cc1)c1ccc([N+](=O)[O-])cc1	–	inconclusive: 0.251 µM [activator, full curve, poor fit]

Already shown: an excerpt of the list.
Compound	activity change, negative = inhibition	Potency
N#Cc1ccccc1OCCN1C(=O)c2ccccc2C1=O	–	inconclusive: 2.82 µM [activator, single point]
O=C(Nc1cccc(NC(=S)NC(=O)c2cccs2)c1)c1ccccc1	–	active: 10 µM
CCC(CC)COC(=O)C1=C(C)NC(=O)NC1c1ccccc1Br (stereo not given)	–	inconclusive: 12.6 µM [activator, single point]
COc1ccccc1NC(=S)NCCc1ccc(OC)c(OC)c1	–	inconclusive: 12.6 µM [inhibitor, single point]
O=C(c1ccccc1)c1ccc(N2CCOCC2)c(NC(=O)c2ccco2)c1	–	inconclusive: 0.562 µM [activator, full curve]
COc1ccccc1Nc1nc(N)nc(CSC(=S)N2CC(C)CC(C)C2)n1 (stereo not given)	–	inconclusive: 11.2 µM [inhibitor, single point]
C/C(NC(=O)c1cccs1)=C1\C(=O)C[C@@H]2[C@H]1C2(C)C	–	inconclusive: 17.8 µM [activator, single point]
C[C@@H](C(=O)NC1CCCCC1)N1C(=O)N2CCc3c([nH]c4ccccc34)[C@@]2(C)C1=O	–	inconclusive: 17.8 µM [activator, single point]
Cc1cccc(N2CCN(Cc3cn(C)nc3-c3ccccc3F)CC2)n1	inactive: -27.4%	–
CC(=O)c1c(C)[nH]c(C(=O)OCC(=O)Nc2ccccc2Cl)c1C	inactive: 30.9%	–
COc1ccc(CCNc2oc(-c3ccco3)nc2C#N)cc1	–	inconclusive: 5.01 µM [activator, full curve]
CCOC(=O)c1ccc2c(c1)C1C=CCC1C(C(=O)OCC)N2 (stereo not given)	–	inconclusive: 1.26 µM [inhibitor, single point]

Later entries:

Compound	activity change, negative = inhibition	Potency
O=C(C1CCN(S(=O)(=O)Cc2ccccc2)CC1)N1CCCc2ccccc21	–	inconclusive: 10 µM [activator, partial curve, poor fit]
C/C(CC(=O)Nc1ccc(N(C)C)cc1)=N\NC(=O)c1ccc([N+](=O)[O-])cc1	–	inconclusive: 20 µM [inhibitor, single point]
O=C(CCc1ccccc1)NNC(=O)c1cc(Cl)ccc1O	–	inconclusive: 17.8 µM [inhibitor, single point]
CC(NC(=O)Nc1ccccc1)C(c1cccs1)N1CCOCC1 (stereo not given)	–	inconclusive: 0.158 µM [inhibitor, full curve, poor fit]
CCn1nc(C)c(CNC(=O)c2cc(COc3ccc(C)nc3)on2)c1C	–	inconclusive: 22.4 µM [activator, single point]
CC(=NCc1cccc(Cl)c1)c1nc(-c2ccco2)oc1O	–	inconclusive: 35.5 µM [activator, single point]
O=[N+]([O-])c1ccc(SCc2c(F)cccc2Cl)nc1	–	inconclusive: 11.2 µM [activator, single point]
Cc1c(NC(=O)c2cc(-n3cnnc3)ccc2Cl)cccc1-c1nc2ccccc2s1	–	inconclusive: 10 µM [inhibitor, partial curve]
CCc1ccc(OCC(=O)Nc2ccc(S(=O)(=O)Nc3ccccn3)cc2)cc1	inactive: 8.31%	–
CC(C)Sc1ncnc2c1cnn2-c1ccccc1	–	inconclusive: 0.158 µM [activator, partial curve]
COc1ccc(NS(=O)(=O)c2ccc(NC(=O)C3CCCO3)cc2)cc1 (stereo not given)	inactive: 36.8%	–
CC(C)N(Cc1ccccc1)C(=S)NC1CCCCC1	–	active: 12.6 µM
CCOCCCN1C(=O)C2C(C(=O)Nc3ccc(OCC)cc3)C3C=CC2(O3)C1C(=O)NC1CCCCC1 (stereo not given)	inactive: -4.56%	–
O=C(NC(=S)Nc1cc(S(=O)(=O)N2CCOCC2)ccc1O)c1ccco1	–	inconclusive: 15.8 µM [inhibitor, single point]
CN(C)S(=O)(=O)c1ccc(C(=O)NCc2ccc3[nH]c4c(c3c2)CCCC4)cc1	–	inconclusive: 14.1 µM [activator, single point]
COc1ccc(S(=O)(=O)N2CCCC2)cc1C(=O)O	inactive: 1.43%	–
O=C(CCl)Nc1c2c(nn1-c1ccccc1)CSC2	–	inconclusive: 28.2 µM [inhibitor, single point]
S=C1NNC2(NN1)C1CC3CC(C1)CC2C3	–	inconclusive: 22.4 µM [inhibitor, single point]
O=C(Nc1ccc2c(c1)OCO2)c1ccc(NC2CC2)c([N+](=O)[O-])c1	inactive: 13.7%	–
COCc1nc2ccccc2n1Cc1ccccc1C	–	inconclusive: 35.5 µM [inhibitor, single point]
Cc1ccccc1OCC(=O)NCCC1=CCCCC1	–	inconclusive: 35.5 µM [inhibitor, single point]
C=CCNC(=S)NNC(=O)CC12CC3CC(CC(C3)C1)C2	–	inconclusive: 2.24 µM [inhibitor, partial curve, poor fit]
